# Test results published in publication PMC8087802.
# Protein sequences, listed by entry. Tags and fused reporters are not part of them.
# UniProt P08515, whole entry: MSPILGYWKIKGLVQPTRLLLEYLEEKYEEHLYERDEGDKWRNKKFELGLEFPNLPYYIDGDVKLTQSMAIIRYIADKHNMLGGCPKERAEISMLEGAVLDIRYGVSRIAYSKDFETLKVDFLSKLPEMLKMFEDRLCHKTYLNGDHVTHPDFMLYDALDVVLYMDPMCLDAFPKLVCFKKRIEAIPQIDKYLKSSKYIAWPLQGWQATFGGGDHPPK
# The exact form of at least one protein or probe is not confirmed. For some assays here: Negatives hold for the conditions tested. For some assays here: At least one verdict was read from the data and is not stated in words by the source.
# Legend:
# [1] = molecular target: GST (UniProt P08515); assay: EMSA; conditions: LightShift Chemiluminescent EMSA Kit; pH and temperature not stated; recombinant protein; label: biotin
# [2] = test system: LcBZR1-GST; assay: EMSA; conditions: LightShift Chemiluminescent EMSA Kit; pH and temperature not stated; recombinant protein; protein details: GST (pGEX-4T-1); label: biotin
# [3] = test system: LcBZR2-GST; assay: EMSA; conditions: LightShift Chemiluminescent EMSA Kit; pH and temperature not stated; recombinant protein; protein details: GST (pGEX-4T-1); label: biotin
# [4] = test system: LcBZR1-GST; assay: competition with a labelled probe; conditions: LightShift Chemiluminescent EMSA Kit, pH and temperature not stated, recombinant protein, protein details: GST (pGEX-4T-1)
# [5] = test system: LcBZR2-GST; assay: competition with a labelled probe; conditions: LightShift Chemiluminescent EMSA Kit, pH and temperature not stated, recombinant protein, protein details: GST (pGEX-4T-1)
# [6] = 100x and 500x unlabeled mutant vs N5
# [7] = 100x and 500x unlabeled mutant vs N7
# [8] = 100x and 500x unlabeled mutant vs N3
# [9] = 100x and 500x unlabeled mutant vs N1
sequence,measurement,setting,value
TAAAGAGAGATAAACTCAATAGATCACACGCGGGCTTAAACCACCAGACAA (double strand) [LcACO2 probe],binding result,[1],no binding
same,binding result,[2],binds
same,binding result,[3],binds
TATTTACATTTTTAACATTTTCAAAAAATCCACCAAGACCCACTAGTT (double strand) [LcACS1 mutant probe],binding result,[4]; [6],no binding
same,binding result,[5]; [6],no binding
CAAGTACCCCTCTCTTCTTCAAGGTATAAAAAATGTATGGACAATTTTGTT (double strand) [LcACS4 mutant probe],binding result,[4]; [7],no binding
same,binding result,[5]; [7],no binding
ACTTTTTGATCACGAAAATTGGGGGGGGTTGCCAAGTAC (double strand) [LcACO3 mutant probe],binding result,[4]; [8],no binding
same,binding result,[5]; [8],no binding
TAAAGAGAGATAAACTCAATAGATAAAAAACGGGCTTAAACCACCAGACAA (double strand) [LcACO2 mutant probe],binding result,[4]; [9],no binding
same,binding result,[5]; [9],no binding
TATTTACATTTTTAACATTTTCCACACGTCCACCAAGACCCACTAGTT (double strand) [LcACS1 probe],binding result,[2],binds
same,binding result,[3],binds
ACTTTTTGATCACGAAAATTGGCAAATGTTGCCAAGTAC (double strand) [LcACO3 probe],binding result,[2],binds
same,binding result,[3],binds
CAAGTACCCCTCTCTTCTTCAAGGTATCGTGCGTGTATGGACAATTTTGTT (double strand) [LcACS4 probe],binding result,[2],binds
same,binding result,[3],binds
